This is one part of the list.
Key:
Assay in all cases: log2 fold change, soluble protein after heating vs DMSO (PISA); higher = thermal stabilisation; K562 cells, 10 uM, 30 min; active = over 0.2 and 3.5 SD of the protein, either way, in both replicates (recomputed)
[1] = compound: CN1CCN(CCOc2cc(OC3CCOCC3)c3c(Nc4c(Cl)ccc5c4OCO5)ncnc3c2)CC1 [saracatinib]
Procedure, shortened: (§1)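 K562 cells (2×10^6 cells/mL) were treated with 10 μM compound for 30 min, and aliquots were heated for 3 min over 48°C-58°C. Pooled aliquots were extracted in PBS with 0.5% NP-40 at 4°C, and the supernatant after 21,000xg for 90 min was measured by TMTpro 16plex LC-MS/MS with channel sums equalised. Reported thermal stability, relative to control samples and from duplicates, is a log2 fold change.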

Protein sequences, listed by entry. Tags and fused reporters are not part of them. Lines headed by an entry give the natural chain unless they say otherwise; changes in a name come on top.
UniProt O95671: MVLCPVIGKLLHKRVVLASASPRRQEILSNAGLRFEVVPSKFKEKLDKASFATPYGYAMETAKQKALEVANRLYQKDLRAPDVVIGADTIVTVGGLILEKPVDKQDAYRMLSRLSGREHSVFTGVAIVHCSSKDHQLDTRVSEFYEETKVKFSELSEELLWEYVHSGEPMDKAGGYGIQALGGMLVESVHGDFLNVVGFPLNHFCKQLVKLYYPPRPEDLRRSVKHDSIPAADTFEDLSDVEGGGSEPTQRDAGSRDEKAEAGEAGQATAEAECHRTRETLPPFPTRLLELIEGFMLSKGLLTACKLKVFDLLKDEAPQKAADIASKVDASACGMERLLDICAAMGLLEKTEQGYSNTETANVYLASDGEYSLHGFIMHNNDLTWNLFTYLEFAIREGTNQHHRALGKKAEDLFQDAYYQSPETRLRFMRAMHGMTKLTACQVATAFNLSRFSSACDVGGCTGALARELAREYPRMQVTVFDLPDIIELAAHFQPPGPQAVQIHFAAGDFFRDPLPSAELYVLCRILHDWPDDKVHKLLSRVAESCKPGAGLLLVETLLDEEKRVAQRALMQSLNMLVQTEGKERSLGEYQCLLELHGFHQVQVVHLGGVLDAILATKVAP
UniProt Q9H1Y0: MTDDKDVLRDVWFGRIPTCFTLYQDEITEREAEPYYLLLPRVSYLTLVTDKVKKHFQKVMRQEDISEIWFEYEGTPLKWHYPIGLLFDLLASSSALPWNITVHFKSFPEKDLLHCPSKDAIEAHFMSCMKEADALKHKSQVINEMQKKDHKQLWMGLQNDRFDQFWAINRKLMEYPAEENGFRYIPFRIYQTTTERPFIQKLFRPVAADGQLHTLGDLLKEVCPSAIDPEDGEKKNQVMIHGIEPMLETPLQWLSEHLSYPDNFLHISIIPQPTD
UniProt Q9Y294, whole entry, looked up: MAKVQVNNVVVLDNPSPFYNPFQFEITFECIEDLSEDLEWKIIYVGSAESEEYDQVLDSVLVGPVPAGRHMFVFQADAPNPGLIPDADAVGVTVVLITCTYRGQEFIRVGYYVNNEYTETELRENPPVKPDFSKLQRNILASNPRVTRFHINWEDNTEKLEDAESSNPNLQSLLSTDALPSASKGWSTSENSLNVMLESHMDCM
UniProt Q6NXE6: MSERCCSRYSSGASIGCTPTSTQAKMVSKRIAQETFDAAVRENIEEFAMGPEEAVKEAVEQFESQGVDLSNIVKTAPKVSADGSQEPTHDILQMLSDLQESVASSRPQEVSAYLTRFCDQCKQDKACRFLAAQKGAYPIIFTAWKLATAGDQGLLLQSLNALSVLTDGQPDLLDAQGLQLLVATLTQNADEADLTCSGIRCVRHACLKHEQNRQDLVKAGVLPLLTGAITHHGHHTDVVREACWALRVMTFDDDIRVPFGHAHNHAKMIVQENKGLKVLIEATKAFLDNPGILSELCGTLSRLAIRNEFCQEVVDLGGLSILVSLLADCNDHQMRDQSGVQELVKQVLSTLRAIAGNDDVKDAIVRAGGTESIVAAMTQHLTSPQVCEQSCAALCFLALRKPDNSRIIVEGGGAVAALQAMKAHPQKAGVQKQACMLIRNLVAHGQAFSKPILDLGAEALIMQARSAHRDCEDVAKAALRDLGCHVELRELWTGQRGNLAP
UniProt Q13315: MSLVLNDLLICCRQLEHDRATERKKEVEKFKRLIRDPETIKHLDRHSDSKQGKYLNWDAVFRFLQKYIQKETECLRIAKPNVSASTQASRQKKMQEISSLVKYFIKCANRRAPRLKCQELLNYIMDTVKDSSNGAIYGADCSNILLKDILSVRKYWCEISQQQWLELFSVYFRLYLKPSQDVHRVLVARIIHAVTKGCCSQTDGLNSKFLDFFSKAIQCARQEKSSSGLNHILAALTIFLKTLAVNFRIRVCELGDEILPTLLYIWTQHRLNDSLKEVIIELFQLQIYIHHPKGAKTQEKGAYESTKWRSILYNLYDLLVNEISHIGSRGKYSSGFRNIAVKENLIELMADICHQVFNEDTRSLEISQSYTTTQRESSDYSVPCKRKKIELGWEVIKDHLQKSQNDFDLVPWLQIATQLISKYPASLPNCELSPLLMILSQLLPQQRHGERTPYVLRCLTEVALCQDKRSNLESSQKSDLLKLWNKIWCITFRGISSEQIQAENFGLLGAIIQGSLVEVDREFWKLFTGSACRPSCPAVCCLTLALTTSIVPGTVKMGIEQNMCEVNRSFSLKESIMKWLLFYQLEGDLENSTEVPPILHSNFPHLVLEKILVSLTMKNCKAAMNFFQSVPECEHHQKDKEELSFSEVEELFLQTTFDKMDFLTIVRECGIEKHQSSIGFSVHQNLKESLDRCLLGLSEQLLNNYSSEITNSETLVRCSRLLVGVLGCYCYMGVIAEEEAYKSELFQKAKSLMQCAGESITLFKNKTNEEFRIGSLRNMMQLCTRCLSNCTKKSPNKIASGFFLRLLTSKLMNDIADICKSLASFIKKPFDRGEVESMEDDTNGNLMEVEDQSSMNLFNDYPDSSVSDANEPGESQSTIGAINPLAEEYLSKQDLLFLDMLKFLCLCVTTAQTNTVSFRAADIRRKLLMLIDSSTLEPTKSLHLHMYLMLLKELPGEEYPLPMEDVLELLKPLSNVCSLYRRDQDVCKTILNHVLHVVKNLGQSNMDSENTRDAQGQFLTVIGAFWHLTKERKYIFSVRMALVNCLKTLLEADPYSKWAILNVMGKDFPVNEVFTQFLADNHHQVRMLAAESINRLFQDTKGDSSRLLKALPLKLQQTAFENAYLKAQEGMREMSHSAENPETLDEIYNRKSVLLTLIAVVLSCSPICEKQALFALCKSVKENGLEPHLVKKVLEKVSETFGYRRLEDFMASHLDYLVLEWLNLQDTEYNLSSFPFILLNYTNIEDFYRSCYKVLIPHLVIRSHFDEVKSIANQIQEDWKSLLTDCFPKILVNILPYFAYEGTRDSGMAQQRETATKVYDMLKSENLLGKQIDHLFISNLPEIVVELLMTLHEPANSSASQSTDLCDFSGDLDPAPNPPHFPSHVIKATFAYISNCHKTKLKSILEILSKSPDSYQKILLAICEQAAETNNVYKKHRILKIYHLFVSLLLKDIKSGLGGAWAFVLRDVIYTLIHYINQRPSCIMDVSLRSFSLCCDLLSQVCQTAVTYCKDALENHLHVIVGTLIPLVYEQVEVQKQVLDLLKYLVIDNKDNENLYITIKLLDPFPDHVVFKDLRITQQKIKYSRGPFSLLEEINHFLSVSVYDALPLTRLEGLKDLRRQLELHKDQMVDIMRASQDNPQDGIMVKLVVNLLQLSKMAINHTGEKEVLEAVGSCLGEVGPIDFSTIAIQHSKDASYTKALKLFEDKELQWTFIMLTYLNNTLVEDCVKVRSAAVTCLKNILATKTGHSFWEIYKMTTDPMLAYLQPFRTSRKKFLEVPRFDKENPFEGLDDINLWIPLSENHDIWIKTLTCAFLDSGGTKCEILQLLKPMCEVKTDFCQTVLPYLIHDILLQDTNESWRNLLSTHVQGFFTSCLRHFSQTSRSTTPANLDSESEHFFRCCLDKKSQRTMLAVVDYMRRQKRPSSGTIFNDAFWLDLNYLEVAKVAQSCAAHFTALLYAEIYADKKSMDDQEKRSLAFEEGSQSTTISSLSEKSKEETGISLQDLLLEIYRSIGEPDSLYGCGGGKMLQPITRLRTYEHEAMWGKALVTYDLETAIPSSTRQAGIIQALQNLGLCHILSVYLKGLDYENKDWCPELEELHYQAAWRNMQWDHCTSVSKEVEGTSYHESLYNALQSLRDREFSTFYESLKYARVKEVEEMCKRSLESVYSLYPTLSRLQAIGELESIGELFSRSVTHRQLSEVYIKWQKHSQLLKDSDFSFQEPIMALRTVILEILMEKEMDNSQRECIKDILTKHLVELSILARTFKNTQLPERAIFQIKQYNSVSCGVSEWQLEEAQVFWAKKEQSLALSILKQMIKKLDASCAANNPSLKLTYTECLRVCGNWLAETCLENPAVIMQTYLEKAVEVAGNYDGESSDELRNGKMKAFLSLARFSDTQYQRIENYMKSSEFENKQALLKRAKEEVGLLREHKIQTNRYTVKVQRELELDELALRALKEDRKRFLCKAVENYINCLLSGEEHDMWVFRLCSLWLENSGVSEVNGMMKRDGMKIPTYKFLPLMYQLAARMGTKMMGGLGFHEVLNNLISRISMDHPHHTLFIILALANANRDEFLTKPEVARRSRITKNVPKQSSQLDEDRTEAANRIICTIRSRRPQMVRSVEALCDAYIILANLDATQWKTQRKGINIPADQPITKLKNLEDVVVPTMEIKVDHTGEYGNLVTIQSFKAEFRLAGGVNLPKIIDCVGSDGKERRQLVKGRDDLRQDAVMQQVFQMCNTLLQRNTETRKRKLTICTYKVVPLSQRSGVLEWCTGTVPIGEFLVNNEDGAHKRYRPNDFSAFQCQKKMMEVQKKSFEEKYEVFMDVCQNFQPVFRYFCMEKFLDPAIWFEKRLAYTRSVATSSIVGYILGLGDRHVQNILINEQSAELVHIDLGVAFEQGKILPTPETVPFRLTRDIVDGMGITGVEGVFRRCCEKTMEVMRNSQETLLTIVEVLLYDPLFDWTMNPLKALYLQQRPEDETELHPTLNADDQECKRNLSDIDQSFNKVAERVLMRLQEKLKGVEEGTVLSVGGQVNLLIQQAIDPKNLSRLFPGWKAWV
UniProt Q9H993: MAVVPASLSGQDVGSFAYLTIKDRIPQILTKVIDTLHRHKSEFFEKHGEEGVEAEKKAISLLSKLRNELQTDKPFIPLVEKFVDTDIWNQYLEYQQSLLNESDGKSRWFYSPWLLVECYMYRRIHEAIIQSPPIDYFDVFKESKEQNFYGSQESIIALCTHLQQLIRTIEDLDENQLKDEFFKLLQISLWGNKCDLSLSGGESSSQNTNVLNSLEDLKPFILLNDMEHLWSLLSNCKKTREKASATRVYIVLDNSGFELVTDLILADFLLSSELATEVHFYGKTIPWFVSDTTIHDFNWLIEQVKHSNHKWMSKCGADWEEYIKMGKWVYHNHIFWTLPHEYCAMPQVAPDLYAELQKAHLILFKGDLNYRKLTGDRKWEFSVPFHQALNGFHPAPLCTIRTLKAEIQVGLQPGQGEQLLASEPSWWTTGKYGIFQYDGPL
UniProt Q96IX5: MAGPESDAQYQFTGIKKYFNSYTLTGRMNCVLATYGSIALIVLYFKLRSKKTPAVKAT
UniProt P24539: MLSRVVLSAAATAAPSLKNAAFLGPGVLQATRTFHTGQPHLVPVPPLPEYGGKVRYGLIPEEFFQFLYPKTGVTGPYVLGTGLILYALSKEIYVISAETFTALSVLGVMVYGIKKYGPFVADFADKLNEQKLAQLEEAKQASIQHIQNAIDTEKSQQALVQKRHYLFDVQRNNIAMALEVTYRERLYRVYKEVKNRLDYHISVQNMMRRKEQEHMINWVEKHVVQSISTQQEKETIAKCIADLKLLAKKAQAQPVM
UniProt P38606, whole entry, looked up: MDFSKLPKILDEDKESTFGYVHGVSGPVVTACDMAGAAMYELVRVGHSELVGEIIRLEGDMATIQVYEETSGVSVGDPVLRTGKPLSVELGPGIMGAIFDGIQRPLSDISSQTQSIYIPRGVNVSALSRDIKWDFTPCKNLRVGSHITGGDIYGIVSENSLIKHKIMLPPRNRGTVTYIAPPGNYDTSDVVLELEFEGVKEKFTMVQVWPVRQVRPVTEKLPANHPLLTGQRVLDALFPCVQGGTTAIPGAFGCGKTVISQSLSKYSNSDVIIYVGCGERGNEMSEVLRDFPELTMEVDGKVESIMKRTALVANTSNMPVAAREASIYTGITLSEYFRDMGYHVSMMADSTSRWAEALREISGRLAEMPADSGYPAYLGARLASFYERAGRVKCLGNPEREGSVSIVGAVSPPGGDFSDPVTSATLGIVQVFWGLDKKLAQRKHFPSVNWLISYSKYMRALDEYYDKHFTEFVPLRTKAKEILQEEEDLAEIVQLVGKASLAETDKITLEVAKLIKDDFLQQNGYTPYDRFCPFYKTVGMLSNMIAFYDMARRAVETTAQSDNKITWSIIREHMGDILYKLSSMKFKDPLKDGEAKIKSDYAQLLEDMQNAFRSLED
UniProt P04424, whole entry, looked up: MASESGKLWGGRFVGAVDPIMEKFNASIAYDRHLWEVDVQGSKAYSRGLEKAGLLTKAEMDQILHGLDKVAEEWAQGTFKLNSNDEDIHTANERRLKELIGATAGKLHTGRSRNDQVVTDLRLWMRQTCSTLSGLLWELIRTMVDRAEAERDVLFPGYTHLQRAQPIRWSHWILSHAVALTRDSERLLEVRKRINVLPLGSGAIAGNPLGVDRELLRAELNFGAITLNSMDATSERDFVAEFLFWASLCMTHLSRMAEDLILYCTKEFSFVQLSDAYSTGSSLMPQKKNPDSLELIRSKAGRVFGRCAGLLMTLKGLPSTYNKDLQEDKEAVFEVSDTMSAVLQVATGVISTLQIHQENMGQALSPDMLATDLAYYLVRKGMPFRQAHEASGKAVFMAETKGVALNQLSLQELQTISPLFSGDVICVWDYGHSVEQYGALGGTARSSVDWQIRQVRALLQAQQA

[2] = compound: CN1CCN(c2nc(C3=C(c4c[nH]c5ccccc45)C(=O)NC3=O)c3ccccc3n2)CC1 [sotrastaurin]
Procedure, shortened: as §1

[3] = compound: CN1CC[C@H](c2c(O)cc(O)c3c(=O)cc(-c4ccccc4Cl)oc23)[C@H](O)C1 [alvocidib]
Procedure, shortened: as §1

[4] = compound: CN1CCc2c(c3ccccc3n2Cc2ccc(C(=O)NO)cc2)C1 [Tubastatin A]
Procedure, shortened: as §1

[5] = compound: CNC(=O)C1=CC=CC=C1NC2=NC(=NC=C2Cl)NC3=C(C=C(C=C3)N4CCOCC4)OC
Procedure, shortened: as §1

[6] = compound: CNC(=O)c1ccc(Nc2ncc(C(F)(F)F)c(NCc3nccnc3N(C)S(C)(=O)=O)n2)cc1 [defactinib]
Procedure, shortened: as §1

[7] = compound: CNCc1ccc(-c2[nH]c3cc(F)cc4c3c2CCNC4=O)cc1 [rucaparib]
Procedure, shortened: as §1

[8] = compound: CNc1nc(-c2ccc3c(N)n[nH]c3c2)cc(N2C[C@@H](C(=O)NC3CCCCC3)CC[C@H]2C)n1
Procedure, shortened: as §1

[9] = compound: COC(=O)N[C@@H](C)CNc1nccc(-c2cn(C(C)C)nc2-c2cc(Cl)cc(NS(C)(=O)=O)c2F)n1 [encorafenib]
Procedure, shortened: as §1

[10] = compound: COC(=O)[C@H](CCSC)NC(=O)C1=C(C=C(C=C1)NC[C@H](CS)N)C2=CC=CC=C2
Procedure, shortened: as §1

Measured: log2 fold change

ASMTL (UniProt O95671)
inactive: [1] -0.082 | [2] -0.007 | [3] 0.013 | [4] 0.049 | [5] -0.057 | [6] -0.083 | [7] -0.035 | [8] 0.089 | [9] 0.088 | [10] -0.16

ATP1B1 (UniProt P05026)
inactive: [1] -0.032 | [2] 0.037 | [3] -0.066 | [4] 0.012 | [5] -0.125 | [6] -0.148 | [7] -0.031 | [8] -0.015 | [9] -0.088 | [10] -0.039

ASNA1 (UniProt O43681)
inactive: [1] 0.025 | [2] -0.014 | [3] -0.015 | [4] -0.068 | [5] -0.018 | [6] -0.005 | [7] -0.037 | [8] -0.016 | [9] 0.001 | [10] 0.017

ATP2B4 (UniProt P23634)
inactive: [1] 0.023 | [2] 0.08 | [3] 0.003 | [4] -0.036 | [5] -0.033 | [6] -0.012 | [7] -0.015 | [8] 0.03 | [9] 0.011 | [10] 0.012

ATP1A3 isoform 3 (UniProt P13637)
inactive: [1] 0.01 | [2] 0.031 | [3] 0.068 | [4] -0.075 | [5] -0.041 | [6] -0.039 | [7] -0.02 | [8] -0.021 | [9] -0.005 | [10] 0.048

ATG5 (UniProt Q9H1Y0)
inactive: [1] -0.007 | [2] -0.03 | [3] -0.037 | [4] -0.009 | [5] -0.047 | [6] 0.022 | [7] -0.039 | [8] 0.021 | [9] 0.037 | [10] -0.011

ATP5MC2 isoform 2 (UniProt Q06055)
inactive: [1] 0.058 | [2] 0.054 | [3] 0.04 | [4] -0.061 | [5] 0.101 | [6] -0.041 | [7] -0.126 | [8] -0.232 | [9] 0.016 | [10] 0.14

ASF1A (UniProt Q9Y294)
inactive: [1] 0.072 | [2] -0.003 | [3] -0.001 | [4] 0.018 | [5] -0.021 | [6] -0.076 | [7] -0.016 | [8] -0.087 | [9] 0.01 | [10] 0.037

ATP5F1A (UniProt P25705)
inactive: [1] 0.032 | [2] 0.037 | [3] 0.008 | [4] -0.03 | [5] 0.011 | [6] 0.022 | [7] -0.044 | [8] -0.017 | [9] -0.014 | [10] 0.029

ARPC5 (UniProt O15511)
inactive: [1] -0.048 | [2] 0.004 | [3] 0.03 | [4] -0.012 | [5] 0.026 | [6] 0.004 | [7] -0.043 | [8] -0.103 | [9] -0.026 | [10] -0.019

ARMC6 (UniProt Q6NXE6)
inactive: [1] -0.062 | [2] -0.077 | [3] 0.223 | [4] 0.053 | [5] -0.071 | [6] 0.145 | [7] 0.475 | [8] 0.015 | [9] 0.236 | [10] -0.156

ATP6AP2 (UniProt O75787)
inactive: [1] 0.03 | [2] -0.012 | [3] -0.009 | [4] 0.084 | [5] 0.033 | [6] 0.018 | [7] -0.008 | [8] -0.051 | [9] -0.002 | [10] -0.017

ARL8B (UniProt Q9NVJ2)
inactive: [1] 0.042 | [2] -0.001 | [3] 0.029 | [4] -0.01 | [5] -0.017 | [6] -0.021 | [7] -0.009 | [8] -0.036 | [9] -0.011 | [10] 0.023

ATPSCKMT (UniProt Q6P4H8)
inactive: [1] -0.062 | [2] 0.016 | [3] -0.193 | [4] -0.026 | [5] 0.06 | [6] -0.096 | [7] -0.061 | [8] -0.072 | [9] 0.015 | [10] -0.001

ATP5F1B (UniProt P06576)
inactive: [1] 0.019 | [2] 0.053 | [3] 0.005 | [4] -0.009 | [5] 0.002 | [6] 0.003 | [7] -0.038 | [8] -0.026 | [9] -0.02 | [10] 0.014

ATG16L1 (UniProt Q676U5)
inactive: [1] 0.063 | [2] 0.016 | [3] -0.029 | [4] -0.063 | [5] 0.018 | [6] -0.043 | [7] -0.001 | [8] -0.057 | [9] -0.013 | [10] 0.024

ATM (UniProt Q13315)
inactive: [1] -0.007 | [2] 0.021 | [3] -0.022 | [4] 0.081 | [5] -0.039 | [6] 0.002 | [7] -0.015 | [8] 0.08 | [9] -0.036 | [10] 0.014

ARMT1 (UniProt Q9H993)
inactive: [1] -0.217 | [2] -0.396 | [3] -0.003 | [4] 0.273 | [5] -0.075 | [6] -0.014 | [7] 0.208 | [8] 0.121 | [9] 0.196 | [10] -0.103

ATP5MD (UniProt Q96IX5)
inactive: [1] 0.027 | [2] 0.083 | [3] -0.014 | [4] -0.089 | [5] 0.084 | [6] -0.03 | [7] 0.116 | [8] 0.075 | [9] -0.074 | [10] 0.004

Two successive records out of the list so far, quoted:
ATP5F1B (UniProt P06576)
inactive: [1] 0.019 | [2] 0.053 | [3] 0.005 | [4] -0.009 | [5] 0.002 | [6] 0.003 | [7] -0.038 | [8] -0.026 | [9] -0.02 | [10] 0.014

ATG16L1 (UniProt Q676U5)
inactive: [1] 0.063 | [2] 0.016 | [3] -0.029 | [4] -0.063 | [5] 0.018 | [6] -0.043 | [7] -0.001 | [8] -0.057 | [9] -0.013 | [10] 0.024

Additional results follow.

ATP5PB (UniProt P24539)
inactive: [1] 0.025 | [2] 0.041 | [3] 0.004 | [4] -0.008 | [5] 0.031 | [6] 0.013 | [7] -0.052 | [8] -0.043 | [9] -0.002 | [10] -0.019

ATP6V0D1 (UniProt P61421)
inactive: [1] -0.327 | [2] -0.02 | [3] 0.047 | [4] 0.1 | [5] -0.026 | [6] 0.073 | [7] 0.07 | [8] -0.06 | [9] 0.135 | [10] -0.014

ASPH (UniProt Q12797)
inactive: [1] -0.009 | [2] -0.088 | [3] 0.132 | [4] 0.037 | [5] -0.016 | [6] 0.049 | [7] 0.031 | [8] -0.013 | [9] 0.048 | [10] -0.056

ARPC1B (UniProt O15143)
inactive: [1] 0.08 | [2] -0.027 | [3] -0.058 | [4] -0.019 | [5] 0.017 | [6] -0.019 | [7] -0.062 | [8] -0.042 | [9] 0.149 | [10] -0.067

ATF2 (UniProt P15336)
inactive: [1] 0.333 | [2] 0.002 | [3] 0.049 | [4] 0.137 | [5] 0.015 | [6] -0.209 | [7] -0.247 | [8] 0.072 | [9] 0.162 | [10] 0.13

ASAP1 isoform 2 (UniProt Q9ULH1)
inactive: [1] -0.075 | [2] -0.088 | [3] -0.185 | [4] 0.075 | [5] 0.065 | [6] -0.022 | [7] 0.096 | [8] 0.05 | [9] 0.058 | [10] -0.088

ATG13 isoform 5 (UniProt O75143)
inactive: [1] 0.011 | [2] 0.018 | [3] -0.052 | [4] 0.092 | [5] 0.053 | [6] -0.034 | [7] 0.092 | [8] -0.092 | [9] -0.028 | [10] 0.009

ATP6V1A (UniProt P38606)
inactive: [1] -0.03 | [2] 0.038 | [3] -0.004 | [4] 0.022 | [5] -0.043 | [6] -0.017 | [7] 0.012 | [8] 0.014 | [9] 0.015 | [10] -0.004

ATF3 (UniProt P18847)
inactive: [1] 0.086 | [2] -0.117 | [3] 0.21 | [4] 0.045 | [5] -0.262 | [6] 0 | [7] 0.28 | [8] -0.003 | [9] -0.027 | [10] 0.139

ASL (UniProt P04424)
inactive: [1] 0.027 | [2] 0.021 | [3] -0.003 | [4] -0.01 | [5] -0.016 | [6] -0.012 | [7] -0.023 | [8] -0.023 | [9] -0.003 | [10] 0.037

ASPM (UniProt Q8IZT6)
inactive: [1] -0.009 | [2] -0.012 | [3] -0.125 | [4] -0.045 | [5] 0.035 | [6] -0.096 | [7] 0.209 | [8] -0.083 | [9] -0.044 | [10] 0.039

From the supplement of paper PMC10849652
